# Data source: PubChem BioAssay AID1224828 (NIAID, 2016)
# Assay: 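Regulators linking TLR4 signalling to p65 nuclear translocation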 (primary screen)
# Cells: mouse RAW264.7 G9 macrophage reporter cells (GFP-p65, Tnf promoter-mCherry)
# Reagents: siRNA pool against mouse genes, 100 nM
# Time to read-out: 2 days siRNA transfection, then 40 min LPS before fixation
# Conditions: LPS (Salmonella minnesota R595) at 10 ng/ml
# Read-out: 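Imaged p65 nuclear translocation ratio, normalised to the plate median, converted to robust z-scores and averaged across two replicates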
# Direction: p65 translocation robust z-score: higher = more nuclear NF-kappaB p65 after LPS than the plate median; nuclear/cytoplasmic p65 ratio: higher = more nuclear NF-kappaB p65
# Call rule: 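Called active when z exceeds 3.3 or falls under -1.56 (median of Tlr4 controls), giving activity score of at least 50; no calls for control wells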
# Meaning of the calls: active = hit (p65 shift raised or lowered); inactive = no clear change
# In all, the deposit lists about 17,000 reagents; below is a random part of them. 762 of them (4.5%) count as active. 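Active calls include both raised and lowered p65 entry, mostly lowered; wells with fewer than 50 cells lack a z-score.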 Raw values vary from plate to plate and are shown uncorrected.
gene,p65 translocation robust z-score,"nuclear/cytoplasmic p65 ratio, rep 1","nuclear/cytoplasmic p65 ratio, rep 2",low cell count flag,Outcome
Mmp20 (matrix metallopeptidase 20 (enamelysin)),-0.51,1.33,1.32,enough cells to score,inactive
Hsf2 (heat shock factor 2),1.4,1.7,1.48,enough cells to score,inactive
Retnlg (resistin like gamma),0.06,1.38,1.27,enough cells to score,inactive
Ccnq (cyclin Q),-0.33,1.35,1.32,enough cells to score,inactive
Camp (cathelicidin antimicrobial peptide),-0.95,1.47,1.47,enough cells to score,inactive
Syce2 (synaptonemal complex central element protein 2),-1.18,1.34,1.16,enough cells to score,inactive
Slc7a8,0.3,1.44,1.28,enough cells to score,inactive
Tsr3 (TSR3 20S rRNA accumulation),2.01,1.69,1.85,enough cells to score,inactive
Rnh1 (ribonuclease/angiogenin inhibitor 1),-0.86,1.43,1.36,enough cells to score,inactive
Lyplal1 (lysophospholipase-like 1),0.01,1.73,1.53,enough cells to score,inactive
Mrps24 (mitochondrial ribosomal protein S24),-1.3,1.61,1.37,enough cells to score,inactive
Ifna12 (interferon alpha 12),-1.14,1.27,1.28,enough cells to score,inactive
Cd52 (CD52 antigen),-1.24,1.5,1.48,enough cells to score,inactive
Erap1 (endoplasmic reticulum aminopeptidase 1),0.77,1.75,1.72,enough cells to score,inactive
Lpcat2 (lysophosphatidylcholine acyltransferase 2),,1.11,1.24,fewer than 50 cells per well; well left out of scoring,inactive
Adamts5 (ADAM metallopeptidase with thrombospondin type 1 motif 5),-0.46,1.54,1.56,enough cells to score,inactive
Cntnap5b (contactin associated protein-like 5B),,1.3,1.25,fewer than 50 cells per well; well left out of scoring,inactive
Lgr5 (leucine rich repeat containing G protein coupled receptor 5),-0.54,1.43,1.5,enough cells to score,inactive
Or4c111 (olfactory receptor family 4 subfamily C member 111),-0.27,1.72,1.45,enough cells to score,inactive
"Rab2a (RAB2A, member RAS oncogene family)",0.89,1.62,1.66,enough cells to score,inactive
Axl (AXL receptor tyrosine kinase),-1.02,1.53,1.26,enough cells to score,inactive
Wap (whey acidic protein),0.45,1.51,1.23,enough cells to score,inactive
"Chrne (cholinergic receptor, nicotinic, epsilon polypeptide)",-1.43,1.32,1.2,enough cells to score,inactive
Mab21l4 (mab-21-like 4),,1.45,1.55,fewer than 50 cells per well; well left out of scoring,inactive

Laid out differently: results already given.
Chrne (cholinergic receptor, nicotinic, epsilon polypeptide)
- p65 translocation robust z-score: -1.43
- nuclear/cytoplasmic p65 ratio, rep 1: 1.32
- nuclear/cytoplasmic p65 ratio, rep 2: 1.2
- low cell count flag: enough cells to score
- Outcome: inactive

Mab21l4 (mab-21-like 4)
- nuclear/cytoplasmic p65 ratio, rep 1: 1.45
- nuclear/cytoplasmic p65 ratio, rep 2: 1.55
- low cell count flag: fewer than 50 cells per well; well left out of scoring
- Outcome: inactive
